Test results from patent USRE38117E1, “Trioxane dimer compound having antiproliferative and antitumor activities” (Hauser, Inc., priority 1995, dated 2003).

Tested on: 60 cell line panel
Assay: NCI 60 cell line screen, values over the whole panel
Format: cell-based

| SMILES | Log10GI50 Delta | Log10GI50 Range | Log10LC50 Delta | Log10LC50 Range | Log10TGI Delta | Log10TGI Range |
| --- | --- | --- | --- | --- | --- | --- |
| COC1OC2(C)CCC3CCCC(CCOC(=O)c4cccc(C(=O)OCCC5CCCC6CCC7(C)OOC56C(OC)O7)c4)C31OO2 (stereo not drawn) [Compound 10, Trioxane Bis-ester Dimer] | 2.53 | 4.00 | 0.17 | 0.18 | 2.97 | 3.19 |
| COC1OC2(C)CCC3CCCC(CCOCCC4CCCC5CCC6(C)OOC45C(OC)O6)C31OO2 (stereo not drawn) [Compound 6, Trioxane Ether Dimer] | 1.85 | 3.85 | 1.72 | 1.77 | 2.10 | 2.36 |
| COC1OC2(C)CCC3CCCC(CCOC(=O)c4ccc(C(=O)OCCC5CCCC6CCC7(C)OOC56C(OC)O7)cc4)C31OO2 (stereo not drawn) [Compound 11, Bis-ester Dimer] | 1.82 | 3.42 | 1.21 | 1.26 | 2.39 | 2.58 |
| CC(=O)O[C@H]1C(=O)[C@@]2(C)[C@H]([C@H](OC(=O)c3ccccc3)[C@]3(O)C[C@H](OC(=O)[C@H](O)[C@@H](NC(=O)c4ccccc4)c4ccccc4)C(C)=C1C3(C)C)[C@]1(OC(C)=O)CO[C@@H]1C[C@@H]2O [Paclitaxel, paclitaxel, reference compound] | −10.15 | 8.00 | −4.06 | 0.45 | −4.54 | 7.20 |
| C[C@@H]1CC[C@H]2[C@@H](C)C(=O)O[C@@H]3O[C@@]4(C)CC[C@@H]1[C@]32OO4 [QHS, 3,6,9-trimethyl-9,10b-epidioxyperhydropyrano[4,3,2-jk]benzoxepin-2-one, reference compound] | −4.07 | 0.73 | −4.00 | 0.00 | −4.00 | 0.06 |

No dose or concentration is given here for some results.
